From PMC9468603

Amino acid sequences for entries named in this document (tags omitted).
UniProt Q7TPR4: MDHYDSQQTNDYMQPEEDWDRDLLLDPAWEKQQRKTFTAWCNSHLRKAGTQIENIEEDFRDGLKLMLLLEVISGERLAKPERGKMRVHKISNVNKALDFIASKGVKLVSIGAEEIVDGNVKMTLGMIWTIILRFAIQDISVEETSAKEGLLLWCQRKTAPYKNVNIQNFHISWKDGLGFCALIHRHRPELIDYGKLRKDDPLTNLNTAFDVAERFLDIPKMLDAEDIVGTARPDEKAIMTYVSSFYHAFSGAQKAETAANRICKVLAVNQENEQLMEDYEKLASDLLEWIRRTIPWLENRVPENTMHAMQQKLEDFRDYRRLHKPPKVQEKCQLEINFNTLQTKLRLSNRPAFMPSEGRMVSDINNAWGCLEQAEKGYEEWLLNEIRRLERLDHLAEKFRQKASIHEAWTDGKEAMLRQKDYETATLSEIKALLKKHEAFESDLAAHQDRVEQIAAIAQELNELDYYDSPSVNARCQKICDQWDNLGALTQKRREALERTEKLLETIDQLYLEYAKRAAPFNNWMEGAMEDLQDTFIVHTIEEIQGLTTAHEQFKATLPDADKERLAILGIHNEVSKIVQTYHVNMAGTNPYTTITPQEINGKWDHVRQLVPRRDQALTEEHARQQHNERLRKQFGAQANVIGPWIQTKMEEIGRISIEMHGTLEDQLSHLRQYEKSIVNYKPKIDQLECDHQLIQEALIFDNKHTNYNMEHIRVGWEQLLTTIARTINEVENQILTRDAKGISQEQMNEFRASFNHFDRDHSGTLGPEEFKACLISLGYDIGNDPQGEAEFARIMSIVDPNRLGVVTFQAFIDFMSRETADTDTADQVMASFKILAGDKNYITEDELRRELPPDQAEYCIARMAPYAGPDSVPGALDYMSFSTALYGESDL

Target: His-tagged Shp2 N-SH2 domain recombinant protein (UniProt Q06124)
Test: affinity purification with mass spectrometry; FA fractions isolated from MEFs treated with or without FAK inhibitor 14 (15 μM, 90 min), harvested in 0.5% Triton-X100, 50 mM Tris-HCl pH 8.0, 150 mM NaCl, 0.1% DOC; incubated with 50 μg His-tagged N-SH2 for 20 min, Ni-beads 40 min at 4°C; SDS-PAGE, silver staining, band of about 100 kD identified by LC/MS/MS; only the target purified

Substance	binding
α-actinin-1 (endogenous, mouse) (from UniProt Q7TPR4 1-892)	binds
α-actinin-4 (endogenous, mouse) (from UniProt P57780 1-912)	binds

No constants are given. Whether binding was seen depends on the method and setting. Binding seen in cells or lysates may run through a third protein. A yes stands for co-enrichment or nearness to the bait. Other partners may have been found.
